Measured values from paper PMC4691244.
No constants are given. Whether binding was seen depends on the method and setting. In cells and extracts the contact can be indirect. Some entries that bind do so weakly or less than the wild type. For some of these results: Sequences can lack the tags named with a protein.

Legend:
[1] = target: T1, DGCR8 (endogenous) (human (endogenous in HEK293T)) (UniProt Q8WYQ5); assay: co-IP; reciprocal immunoprecipitation of endogenous DGCR8 and endogenous hRRP6, western blot; in the presence or absence of RNase A
T1 sequence: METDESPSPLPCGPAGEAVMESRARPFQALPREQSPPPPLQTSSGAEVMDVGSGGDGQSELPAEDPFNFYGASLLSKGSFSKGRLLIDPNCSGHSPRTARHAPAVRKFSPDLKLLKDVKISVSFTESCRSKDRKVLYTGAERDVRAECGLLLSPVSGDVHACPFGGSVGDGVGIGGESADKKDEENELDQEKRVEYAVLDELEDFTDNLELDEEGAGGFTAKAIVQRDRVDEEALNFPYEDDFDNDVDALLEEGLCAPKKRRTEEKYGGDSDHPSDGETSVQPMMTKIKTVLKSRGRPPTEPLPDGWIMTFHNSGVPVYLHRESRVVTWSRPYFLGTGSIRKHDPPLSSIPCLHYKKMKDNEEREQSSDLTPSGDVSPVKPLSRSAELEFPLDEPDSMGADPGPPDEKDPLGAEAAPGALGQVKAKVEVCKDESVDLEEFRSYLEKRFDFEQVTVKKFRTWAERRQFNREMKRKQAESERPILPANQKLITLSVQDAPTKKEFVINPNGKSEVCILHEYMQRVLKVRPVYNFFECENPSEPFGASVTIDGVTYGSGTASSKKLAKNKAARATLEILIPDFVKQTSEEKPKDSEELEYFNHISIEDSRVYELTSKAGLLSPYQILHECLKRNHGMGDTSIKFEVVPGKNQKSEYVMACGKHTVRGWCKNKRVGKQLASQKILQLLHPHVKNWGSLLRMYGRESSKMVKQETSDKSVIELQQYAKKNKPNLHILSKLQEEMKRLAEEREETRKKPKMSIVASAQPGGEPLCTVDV

FLAG-DGCR8 (human) [2] = target: T2, FLAG-DGCR8 (human) (UniProt Q8WYQ5); assay: co-IP; immunoprecipitation of transiently expressed FLAG-DGCR8 from nucleoplasmic and nucleolar fractions, western blot of endogenous hRRP6
T2 sequence: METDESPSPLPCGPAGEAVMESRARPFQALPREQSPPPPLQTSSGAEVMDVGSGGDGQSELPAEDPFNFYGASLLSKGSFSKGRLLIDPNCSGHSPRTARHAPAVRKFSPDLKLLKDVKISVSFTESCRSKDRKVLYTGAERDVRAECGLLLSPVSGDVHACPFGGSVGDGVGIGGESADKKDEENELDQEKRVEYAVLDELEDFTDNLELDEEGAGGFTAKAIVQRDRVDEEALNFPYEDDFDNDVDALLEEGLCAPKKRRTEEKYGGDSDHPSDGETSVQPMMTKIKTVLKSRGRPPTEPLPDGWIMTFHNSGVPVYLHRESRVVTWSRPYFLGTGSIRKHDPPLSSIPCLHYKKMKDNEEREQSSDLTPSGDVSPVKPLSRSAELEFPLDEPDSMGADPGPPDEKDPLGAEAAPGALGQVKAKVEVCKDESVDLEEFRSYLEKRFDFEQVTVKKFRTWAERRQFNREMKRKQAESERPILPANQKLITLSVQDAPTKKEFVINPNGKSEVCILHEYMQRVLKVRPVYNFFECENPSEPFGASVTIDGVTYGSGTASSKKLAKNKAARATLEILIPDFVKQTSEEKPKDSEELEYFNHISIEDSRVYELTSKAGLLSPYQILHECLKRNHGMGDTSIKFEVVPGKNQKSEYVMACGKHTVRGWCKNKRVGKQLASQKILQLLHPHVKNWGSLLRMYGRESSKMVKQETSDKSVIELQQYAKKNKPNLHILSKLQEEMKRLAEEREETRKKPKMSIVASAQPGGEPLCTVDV

FLAG-DGCR8 (human) [3] = target: T2, FLAG-DGCR8 (human); assay: co-IP; anti-T7 or anti-FLAG immunoprecipitation of overexpressed T7-DGCR8, FLAG-DGCR8, FLAG-Drosha (and T7-DGCR8 dRBD1&2 mut) from transfected HEK293T cells; western blot of endogenous partners; in the presence or absence of RNase A (Figure 1C)
FLAG-Drosha [4] = target: T3, FLAG-Drosha (UniProt Q9NRR4); assay: as above
T3 sequence: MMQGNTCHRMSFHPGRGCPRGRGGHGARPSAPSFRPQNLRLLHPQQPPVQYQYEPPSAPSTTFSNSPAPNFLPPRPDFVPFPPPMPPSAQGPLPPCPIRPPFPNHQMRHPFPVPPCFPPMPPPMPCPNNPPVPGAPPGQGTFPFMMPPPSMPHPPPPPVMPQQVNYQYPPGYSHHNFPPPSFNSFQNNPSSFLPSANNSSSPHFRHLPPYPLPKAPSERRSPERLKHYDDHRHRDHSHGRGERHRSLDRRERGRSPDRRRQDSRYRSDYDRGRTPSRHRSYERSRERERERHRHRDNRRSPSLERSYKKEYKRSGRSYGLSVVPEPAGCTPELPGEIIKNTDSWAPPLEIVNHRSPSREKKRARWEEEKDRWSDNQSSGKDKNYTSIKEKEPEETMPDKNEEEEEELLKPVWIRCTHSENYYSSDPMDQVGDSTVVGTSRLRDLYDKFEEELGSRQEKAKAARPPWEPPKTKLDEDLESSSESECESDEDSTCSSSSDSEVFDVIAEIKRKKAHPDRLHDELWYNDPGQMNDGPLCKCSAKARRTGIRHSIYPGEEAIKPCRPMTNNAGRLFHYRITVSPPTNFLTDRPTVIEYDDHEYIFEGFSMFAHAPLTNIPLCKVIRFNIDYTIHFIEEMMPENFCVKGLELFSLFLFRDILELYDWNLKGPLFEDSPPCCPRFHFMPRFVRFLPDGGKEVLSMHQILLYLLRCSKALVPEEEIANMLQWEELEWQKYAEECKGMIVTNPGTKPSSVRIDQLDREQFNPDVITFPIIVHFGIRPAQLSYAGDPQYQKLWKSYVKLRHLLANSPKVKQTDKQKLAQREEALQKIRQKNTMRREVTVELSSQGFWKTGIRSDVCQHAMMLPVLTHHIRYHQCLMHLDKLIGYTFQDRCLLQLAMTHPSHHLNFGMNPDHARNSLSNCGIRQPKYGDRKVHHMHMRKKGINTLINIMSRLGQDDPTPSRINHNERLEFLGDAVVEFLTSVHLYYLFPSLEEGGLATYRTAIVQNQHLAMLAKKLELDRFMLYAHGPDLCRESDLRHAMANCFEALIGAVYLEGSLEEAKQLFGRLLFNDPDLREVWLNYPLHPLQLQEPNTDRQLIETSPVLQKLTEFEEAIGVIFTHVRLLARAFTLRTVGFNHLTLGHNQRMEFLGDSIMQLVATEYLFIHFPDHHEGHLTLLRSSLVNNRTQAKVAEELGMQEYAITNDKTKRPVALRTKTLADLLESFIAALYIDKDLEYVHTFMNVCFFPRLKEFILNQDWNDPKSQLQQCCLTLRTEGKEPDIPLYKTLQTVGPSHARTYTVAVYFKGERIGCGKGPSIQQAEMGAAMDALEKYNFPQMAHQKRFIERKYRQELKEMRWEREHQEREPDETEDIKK

T7-DGCR8 (human) = target: T4, T7-DGCR8 (human) (UniProt Q8WYQ5); assay: as above
T4 sequence: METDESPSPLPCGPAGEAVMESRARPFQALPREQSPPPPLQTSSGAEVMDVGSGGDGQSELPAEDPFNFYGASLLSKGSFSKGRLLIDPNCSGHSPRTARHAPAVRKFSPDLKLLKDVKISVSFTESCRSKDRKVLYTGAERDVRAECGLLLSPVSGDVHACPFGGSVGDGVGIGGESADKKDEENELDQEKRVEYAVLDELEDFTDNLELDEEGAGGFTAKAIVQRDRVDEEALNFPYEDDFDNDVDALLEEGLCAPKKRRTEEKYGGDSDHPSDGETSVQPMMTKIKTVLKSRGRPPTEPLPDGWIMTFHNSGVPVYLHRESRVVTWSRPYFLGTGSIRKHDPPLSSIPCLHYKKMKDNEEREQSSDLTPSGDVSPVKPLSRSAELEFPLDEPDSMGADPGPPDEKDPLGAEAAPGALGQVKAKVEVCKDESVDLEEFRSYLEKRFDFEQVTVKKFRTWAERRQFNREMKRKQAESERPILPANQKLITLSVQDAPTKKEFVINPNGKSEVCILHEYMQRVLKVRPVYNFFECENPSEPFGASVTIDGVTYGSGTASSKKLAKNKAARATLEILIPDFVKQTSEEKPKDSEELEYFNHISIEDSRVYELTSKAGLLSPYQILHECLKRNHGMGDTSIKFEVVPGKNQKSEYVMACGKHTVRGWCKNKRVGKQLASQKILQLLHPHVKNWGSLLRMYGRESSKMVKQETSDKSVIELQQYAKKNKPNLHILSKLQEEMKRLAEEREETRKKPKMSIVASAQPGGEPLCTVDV

FLAG-DGCR8 (human) [5] = target: T2, FLAG-DGCR8 (human); assay: co-IP + co-sedimentation; FLAG immunoprecipitates eluted under native conditions, 5%-30% glycerol gradient (50mM Tris (pH 0.5), 150 mM NaCl, 1 mM EDTA; 16 hr at 41,000 rpm), fractions pooled into light (1-11) and heavy (12-22), western blot; lysates produced in the presence of DNase and RNase
FLAG-Drosha [6] = target: T3, FLAG-Drosha; assay: as above

B1: hRRP6 (enzyme, UniProt Q01780 1-885)
chain: MAPPSTREPRVLSATSATKSDGEMVLPGFPDADSFVKFALGSVVAVTKASGGLPQFGDEYDFYRSFPGFQAFCETQGDRLLQCMSRVMQYHGCRSNIKDRSKVTELEDKFDLLVDANDVILERVGILLDEASGVNKNQQPVLPAGLQVPKTVVSSWNRKAAEYGKKAKSETFRLLHAKNIIRPQLKFREKIDNSNTPFLPKIFIKPNAQKPLPQALSKERRERPQDRPEDLDVPPALADFIHQQRTQQVEQDMFAHPYQYELNHFTPADAVLQKPQPQLYRPIEETPCHFISSLDELVELNEKLLNCQEFAVDLEHHSYRSFLGLTCLMQISTRTEDFIIDTLELRSDMYILNESLTDPAIVKVFHGADSDIEWLQKDFGLYVVNMFDTHQAARLLNLGRHSLDHLLKLYCNVDSNKQYQLADWRIRPLPEEMLSYARDDTHYLLYIYDKMRLEMWERGNGQPVQLQVVWQRSRDICLKKFIKPIFTDESYLELYRKQKKHLNTQQLTAFQLLFAWRDKTARREDESYGYVLPNHMMLKIAEELPKEPQGIIACCNPVPPLVRQQINEMHLLIQQAREMPLLKSEVAAGVKKSGPLPSAERLENVLFGPHDCSHAPPDGYPIIPTSGSVPVQKQASLFPDEKEDNLLGTTCLIATAVITLFNEPSAEDSKKGPLTVAQKKAQNIMESFENPFRMFLPSLGHRAPVSQAAKFDPSTKIYEISNRWKLAQVQVQKDSKEAVKKKAAEQTAAREQAKEACKAAAEQAISVRQQVVLENAAKKRERATSDPRTTEQKQEKKRLKISKKPKDPEPPEKEFTPYDYSQSDFKAFAGNSKSKVSSQFDPNKQTPSGKKCIAAKKIKQSVGNKSMSFPTGKSDRGFRYNWPQR
binding [1]: binds | binding (FLAG-DGCR8 (human) [2]): binds | binding (FLAG-DGCR8 (human) [3]): binds | binding (FLAG-Drosha [4]): no binding | binding (T7-DGCR8 (human)): binds | binding (FLAG-DGCR8 (human) [5]): binds | binding (FLAG-Drosha [6]): no binding
